These are yes or no findings as the source states them, for the method shown. In cells and extracts the contact can be indirect. Binding calls can cover weak binding; strength is not graded here. For some assays here: Where a sequence is shown, tags or fusion partners need not be part of it.

Test [1] deals with T1, FLRT3 expressed in Xenopus embryos (cross-linking experiment) (Xenopus) (UniProt Q70AK3).
T1 sequence: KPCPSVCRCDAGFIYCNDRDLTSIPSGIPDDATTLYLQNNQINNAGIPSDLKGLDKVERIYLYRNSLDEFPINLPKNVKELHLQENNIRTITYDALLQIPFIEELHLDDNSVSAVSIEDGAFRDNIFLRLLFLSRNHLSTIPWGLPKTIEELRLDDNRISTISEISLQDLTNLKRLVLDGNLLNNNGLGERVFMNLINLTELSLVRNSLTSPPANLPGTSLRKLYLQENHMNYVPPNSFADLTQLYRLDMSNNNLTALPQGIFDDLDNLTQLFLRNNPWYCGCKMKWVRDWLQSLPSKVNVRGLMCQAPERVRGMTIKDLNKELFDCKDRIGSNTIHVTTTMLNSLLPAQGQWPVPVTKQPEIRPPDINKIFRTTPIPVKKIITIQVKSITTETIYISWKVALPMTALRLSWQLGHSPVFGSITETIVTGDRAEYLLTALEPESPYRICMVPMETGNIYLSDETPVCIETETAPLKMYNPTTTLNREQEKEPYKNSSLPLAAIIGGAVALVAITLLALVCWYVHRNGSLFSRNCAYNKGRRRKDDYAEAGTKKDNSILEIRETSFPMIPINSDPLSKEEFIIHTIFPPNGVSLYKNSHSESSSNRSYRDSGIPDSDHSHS
In words: cross-linking + co-IP; total membranes of stage 10.5 Xenopus embryos injected with PAPC and FLRT3 RNAs, crosslinked with 0.5 mM Sulfo-DST, dissolved in Ripa buffer, IP with preimmune, anti-PAPC or anti-FLRT3 IgG; Western blot.

Test [2] concerns the target T2, Flag-tagged FLRT3 expressed in Xenopus embryos (Xenopus) (UniProt Q70AK3).
T2 sequence: T1 sequence
The test is described as follows: co-IP; extracts of Xenopus embryos injected with FLRT3-Flag and RND1-HA RNA with or without FL-PAPC, M-PAPC or PAPC-TMC RNA; anti-Flag IP and Western blot.

Consider “endogenous C-cadherin of Xenopus embryos”, for which, in test [1], the binding result is “binds weakly”. “HA-tagged RND1 expressed in Xenopus embryos”: the binding result in test [2] is on record as “binds”.

The values above are taken from publication PMC2791867.
